Measured data: PubChem BioAssay AID1224828 (NIAID, 2016)

Assay: 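Knock-downs that increase or decrease LPS-induced p65 nuclear translocation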 (primary screen)
Cells: mouse RAW264.7 G9 macrophage reporter cells (GFP-p65, Tnf promoter-mCherry)
Knock-down reagent: siRNA pool against mouse genes, 100 nM
Timing: 2 days siRNA transfection, then 40 min LPS before fixation
Challenge: LPS (Salmonella minnesota R595) at 10 ng/ml
Read-out: 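Imaged p65 nuclear translocation ratio, normalised to the plate median, converted to robust z-scores and averaged across two replicates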
Direction: p65 translocation robust z-score: higher = more nuclear NF-kappaB p65 after LPS than the plate median; nuclear/cytoplasmic p65 ratio: higher = more nuclear NF-kappaB p65
Hit rule: 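Called active when z exceeds 3.3 or falls under -1.56 (median of Tlr4 controls), giving activity score of at least 50; no calls for control wells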
Calls: active = hit (p65 shift raised or lowered); inactive = no clear change
This is one part, drawn at random, of about 17,000 reagents. Over the whole deposit, 762 (4.5%) are marked active. 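Active calls include both raised and lowered p65 entry, mostly lowered; wells with fewer than 50 cells lack a z-score.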 Raw values are not corrected between plates. Unmarked entries are inactive.

no.	Target gene	p65 translocation robust z-score	nuclear/cytoplasmic p65 ratio, rep 1	nuclear/cytoplasmic p65 ratio, rep 2	low cell count flag
1	Moap1 (modulator of apoptosis 1)	-1.56	1.22	1.16	enough cells to score
2	Oprk1 (opioid receptor, kappa 1)		1.54	1.47	fewer than 50 cells per well; well left out of scoring
3	Ccdc178 (coiled coil domain containing 178)		1.23	1.28	fewer than 50 cells per well; well left out of scoring
4	Macir (macrophage immunometabolism regulator)	2.43	1.94	1.88	enough cells to score
5	Zswim4 (zinc finger SWIM-type containing 4)	-0.63	1.35	1.16	enough cells to score
6	Or6c208 (olfactory receptor family 6 subfamily C member 208)		1.3	1.21	fewer than 50 cells per well; well left out of scoring
7	Aldh1a3 (aldehyde dehydrogenase family 1, subfamily A3)	-0.45	1.54	1.57	enough cells to score
8	Or5b101 (olfactory receptor family 5 subfamily B member 101)	0.83	1.65	1.6	enough cells to score
9	Azgp1 (alpha-2-glycoprotein 1, zinc)	-0.83	1.4	1.48	enough cells to score
10	Crot (carnitine O-octanoyltransferase)	-0.38	1.52	1.25	enough cells to score
11	Tgfbi (transforming growth factor, beta induced)	-0.24	1.47	1.5	enough cells to score
12	Slc44a4		1.5	1	fewer than 50 cells per well; well left out of scoring
13	Nr2e3 (nuclear receptor subfamily 2, group E, member 3)	-0.92	1.39	1.24	enough cells to score
14	Ptprk (protein tyrosine phosphatase receptor type K)	-0.12	1.57	1.43	enough cells to score

Next part; the last 3 above are carried over.
no.	Target gene	p65 translocation robust z-score	nuclear/cytoplasmic p65 ratio, rep 1	nuclear/cytoplasmic p65 ratio, rep 2	low cell count flag
12	Slc44a4		1.5	1	fewer than 50 cells per well; well left out of scoring
13	Nr2e3 (nuclear receptor subfamily 2, group E, member 3)	-0.92	1.39	1.24	enough cells to score
14	Ptprk (protein tyrosine phosphatase receptor type K)	-0.12	1.57	1.43	enough cells to score
15	Ypel1 (yippee like 1)	0.23	1.38	1.33	enough cells to score
16	Drg2 (developmentally regulated GTP binding protein 2)	-0.04	1.53	1.32	enough cells to score
17	Nppb (natriuretic peptide type B)	0.18	1.65	1.63	enough cells to score
18	Dapk2 (death-associated protein kinase 2)	0.24	1.67	1.46	enough cells to score
19	Slain1 (SLAIN motif family, member 1)	-0.83	1.32	1.43	enough cells to score
20	P2ry13 (purinergic receptor P2Y, G-protein coupled 13)	-0.04	1.5	1.49	enough cells to score
21	Gmeb1 (glucocorticoid modulatory element binding protein 1)	-1.02	1.22	1.32	enough cells to score
22	Snx2 (sorting nexin 2)	-1.39	1.17	1.07	enough cells to score
23	A630091E08Rik (RIKEN cDNA A630091E08 gene)	0.35	1.44	1.58	enough cells to score
24	Mpv17l (Mpv17 transgene, kidney disease mutant-like)	0.87	2.04	1.62	enough cells to score
